Our source for the binding values is publication PMC12036977.

For the assay, the target named is Membrane frizzled-related protein (MFRP), native bovine RPE (bovine (endogenous in RPE)). The assay can be described thus: affinity purification with mass spectrometry; detergent-free native bovine RPE membranes solubilized with SMA copolymers (lipid nano-disks); anti-MFRP resins vs. normal-IgG control resins; quantitative MS.

These are yes or no findings as the source states them, for the method shown. In cells and extracts the contact can be indirect. These calls come from enrichment with a bait or labelling near it, and not all partners need be listed.

B1: Inward rectifier potassium channel 13 (KCNJ13), native bovine RPE (protein, UniProt E1BN00 1-360)
chain: MDGSHCKVIAPLLTERHQRMVTKDGHSTLQMDGAQTGLAYLRDAWGILMDMRWRWMMLVFSASFVIHWLVFAVLWYILAEMNGDLGLDHDAPPENHTICVKYITSFTAAFSFSLETQLTIGYGTMFPSGDCPSAIALLAIQMLLGLMLEAFITGAFVAKIARPKNRAFSIRFTDLAVVAHIDGKPNLIFQVANTRPSPLTNVRVSAVLYQERENGKLYQTSVDFHLDGISSEECPFFIFPLTYYHSIIPSSPLATLLQHENPPHFELVVFLSAMQEGTGETCQRRTSYLPSEIMLHHCFASLLARGSKGEYQIKMENFDKTTPEFQTPLVSKSPNRTDLDIHINGQSIDNFQISETGLTE
In the case of B1, the binding result was “binds”.
